Assay results: the supplement of paper PMC7661543
Differences between knockout arms are mostly noise.

System: HCC-38
Experiment: relative cell number vs DMSO control (72 h) (% of DMSO); higher = less growth inhibition (more cells)
Protocol: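 QMAP-Seq: a pool of 5 breast cancer cell lines (ZR-75-1, SKBR3, HCC-38, MDA-MB-231, BT-20), each carrying 12 doxycycline-inducible Cas9 sgRNA perturbations (11 knockouts plus non-targeting sgNT), was treated with compounds for 72 h at four 10-fold doses (10 nM-10 uM or 1 nM-1 uM range). Barcodes were amplified and sequenced, and cell number was interpolated from 293T spike-in standard curves. The result is expressed as % of the median of DMSO wells. Two biological replicates.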

CC(C)[C@]12O[C@H]1[C@@H]1O[C@]13[C@]1(O[C@H]1C[C@H]1C4=C(CC[C@@]13C)C(=O)OC4)[C@@H]2O [Triptolide]
Conditions | relative cell number
sgRNA knockout: sgATF3, 1 nM | 105
sgRNA knockout: sgATF3, 10 nM | 57.7
sgRNA knockout: sgATF3, 100 nM | 23.4
sgRNA knockout: sgATF3, 1000 nM | 17.2
sgRNA knockout: sgATF4, 1 nM | 96.2
sgRNA knockout: sgATF4, 10 nM | 67.9
sgRNA knockout: sgATF4, 100 nM | 25.3
sgRNA knockout: sgATF4, 1000 nM | 19
sgRNA knockout: sgATF6, 1 nM | 98.9
sgRNA knockout: sgATF6, 10 nM | 53.6
sgRNA knockout: sgATF6, 100 nM | 20.1
sgRNA knockout: sgATF6, 1000 nM | 17.6
sgRNA knockout: sgATG7, 1 nM | 99.6
sgRNA knockout: sgATG7, 10 nM | 65.4
sgRNA knockout: sgATG7, 100 nM | 22.1
sgRNA knockout: sgATG7, 1000 nM | 18.1
sgRNA knockout: sgERN1, 1 nM | 103
sgRNA knockout: sgERN1, 10 nM | 56.4
sgRNA knockout: sgERN1, 100 nM | 23.3
sgRNA knockout: sgERN1, 1000 nM | 18.2
sgRNA knockout: sgHSF1, 1 nM | 94
sgRNA knockout: sgHSF1, 10 nM | 54.8
sgRNA knockout: sgHSF1, 100 nM | 20.7
sgRNA knockout: sgHSF1, 1000 nM | 19.1
sgRNA knockout: sgHSF2, 1 nM | 105
sgRNA knockout: sgHSF2, 10 nM | 62.1
sgRNA knockout: sgHSF2, 100 nM | 25.6
sgRNA knockout: sgHSF2, 1000 nM | 16.2
sgRNA knockout: sgKEAP1, 1 nM | 91.5
sgRNA knockout: sgKEAP1, 10 nM | 51.13
sgRNA knockout: sgKEAP1, 100 nM | 28.2
sgRNA knockout: sgKEAP1, 1000 nM | 16.8
sgRNA knockout: sgNFE2L2, 1 nM | 96.5
sgRNA knockout: sgNFE2L2, 10 nM | 60.1
sgRNA knockout: sgNFE2L2, 100 nM | 25
sgRNA knockout: sgNFE2L2, 1000 nM | 19.6
sgRNA knockout: sgSLC35F2, 1 nM | 94.4
sgRNA knockout: sgSLC35F2, 10 nM | 69.3
sgRNA knockout: sgSLC35F2, 100 nM | 26.3
sgRNA knockout: sgSLC35F2, 1000 nM | 18
sgRNA knockout: sgXBP1, 1 nM | 103
sgRNA knockout: sgXBP1, 10 nM | 64.6
sgRNA knockout: sgXBP1, 100 nM | 23.9
sgRNA knockout: sgXBP1, 1000 nM | 18.1

Cc1onc(-c2ccccc2)c1-c1ccc(S(N)(=O)=O)cc1 [Valdecoxib]
Conditions | relative cell number
sgRNA knockout: sgATF3, 10 nM | 114
sgRNA knockout: sgATF3, 100 nM | 88.8
sgRNA knockout: sgATF3, 1000 nM | 98.01
sgRNA knockout: sgATF3, 10000 nM | 86.4
sgRNA knockout: sgATF4, 10 nM | 116
sgRNA knockout: sgATF4, 100 nM | 99.4
sgRNA knockout: sgATF4, 1000 nM | 91.3
sgRNA knockout: sgATF4, 10000 nM | 92.9
sgRNA knockout: sgATF6, 10 nM | 90.6
sgRNA knockout: sgATF6, 100 nM | 102
sgRNA knockout: sgATF6, 1000 nM | 122
sgRNA knockout: sgATF6, 10000 nM | 107.45
sgRNA knockout: sgATG7, 10 nM | 108
sgRNA knockout: sgATG7, 100 nM | 99.3
sgRNA knockout: sgATG7, 1000 nM | 96.6
sgRNA knockout: sgATG7, 10000 nM | 94.1
sgRNA knockout: sgERN1, 10 nM | 105
sgRNA knockout: sgERN1, 100 nM | 97.7
sgRNA knockout: sgERN1, 1000 nM | 103
sgRNA knockout: sgERN1, 10000 nM | 98.5
sgRNA knockout: sgHSF1, 10 nM | 100
sgRNA knockout: sgHSF1, 100 nM | 105
sgRNA knockout: sgHSF1, 1000 nM | 100
sgRNA knockout: sgHSF1, 10000 nM | 102
sgRNA knockout: sgHSF2, 10 nM | 118
sgRNA knockout: sgHSF2, 100 nM | 97.9
sgRNA knockout: sgHSF2, 1000 nM | 104.2
sgRNA knockout: sgHSF2, 10000 nM | 97.9
sgRNA knockout: sgKEAP1, 10 nM | 100
sgRNA knockout: sgKEAP1, 100 nM | 105
sgRNA knockout: sgKEAP1, 1000 nM | 104.6
sgRNA knockout: sgKEAP1, 10000 nM | 109
sgRNA knockout: sgNFE2L2, 10 nM | 108
sgRNA knockout: sgNFE2L2, 100 nM | 95.7
sgRNA knockout: sgNFE2L2, 1000 nM | 91.7
sgRNA knockout: sgNFE2L2, 10000 nM | 94
sgRNA knockout: sgSLC35F2, 10 nM | 119
sgRNA knockout: sgSLC35F2, 100 nM | 88.3
sgRNA knockout: sgSLC35F2, 1000 nM | 99.5
sgRNA knockout: sgSLC35F2, 10000 nM | 97
sgRNA knockout: sgXBP1, 10 nM | 112
sgRNA knockout: sgXBP1, 100 nM | 98.4
sgRNA knockout: sgXBP1, 1000 nM | 94.2
sgRNA knockout: sgXBP1, 10000 nM | 95.1

C[C@]1(c2nc3c(C(N)=O)cccc3[nH]2)CCCN1 [Veliparib]
Conditions | relative cell number
sgRNA knockout: sgATF3, 10 nM | 113
sgRNA knockout: sgATF3, 100 nM | 117
sgRNA knockout: sgATF3, 1000 nM | 115
sgRNA knockout: sgATF3, 10000 nM | 85.9
sgRNA knockout: sgATF4, 10 nM | 108
sgRNA knockout: sgATF4, 100 nM | 113
sgRNA knockout: sgATF4, 1000 nM | 105
sgRNA knockout: sgATF4, 10000 nM | 91.5
sgRNA knockout: sgATF6, 10 nM | 118
sgRNA knockout: sgATF6, 100 nM | 126
sgRNA knockout: sgATF6, 1000 nM | 122
sgRNA knockout: sgATF6, 10000 nM | 88.8
sgRNA knockout: sgATG7, 10 nM | 103
sgRNA knockout: sgATG7, 100 nM | 109
sgRNA knockout: sgATG7, 1000 nM | 101
sgRNA knockout: sgATG7, 10000 nM | 91.7
sgRNA knockout: sgERN1, 10 nM | 104
sgRNA knockout: sgERN1, 100 nM | 113
sgRNA knockout: sgERN1, 1000 nM | 102
sgRNA knockout: sgERN1, 10000 nM | 93.53
sgRNA knockout: sgHSF1, 10 nM | 122
sgRNA knockout: sgHSF1, 100 nM | 140
sgRNA knockout: sgHSF1, 1000 nM | 135
sgRNA knockout: sgHSF1, 10000 nM | 98.3
sgRNA knockout: sgHSF2, 10 nM | 125
sgRNA knockout: sgHSF2, 100 nM | 128
sgRNA knockout: sgHSF2, 1000 nM | 111
sgRNA knockout: sgHSF2, 10000 nM | 88.4
sgRNA knockout: sgKEAP1, 10 nM | 125
sgRNA knockout: sgKEAP1, 100 nM | 153
sgRNA knockout: sgKEAP1, 1000 nM | 126
sgRNA knockout: sgKEAP1, 10000 nM | 82.7
sgRNA knockout: sgNFE2L2, 10 nM | 99.89
sgRNA knockout: sgNFE2L2, 100 nM | 103
sgRNA knockout: sgNFE2L2, 1000 nM | 98.8
sgRNA knockout: sgNFE2L2, 10000 nM | 89.8
sgRNA knockout: sgSLC35F2, 10 nM | 107
sgRNA knockout: sgSLC35F2, 100 nM | 118
sgRNA knockout: sgSLC35F2, 1000 nM | 102
sgRNA knockout: sgSLC35F2, 10000 nM | 88
sgRNA knockout: sgXBP1, 10 nM | 110
sgRNA knockout: sgXBP1, 100 nM | 114
sgRNA knockout: sgXBP1, 1000 nM | 107
sgRNA knockout: sgXBP1, 10000 nM | 93.6
